Source: paper PMC9661769
These are yes or no findings as the source states them, for the method shown. Binding seen in cells or lysates may run through a third protein. Some entries that bind do so weakly or less than the wild type. For part of these data: Sequences can lack the tags named with a protein.

The chains behind the UniProt entries cited, without tags or fusion partners.
UniProt P55064: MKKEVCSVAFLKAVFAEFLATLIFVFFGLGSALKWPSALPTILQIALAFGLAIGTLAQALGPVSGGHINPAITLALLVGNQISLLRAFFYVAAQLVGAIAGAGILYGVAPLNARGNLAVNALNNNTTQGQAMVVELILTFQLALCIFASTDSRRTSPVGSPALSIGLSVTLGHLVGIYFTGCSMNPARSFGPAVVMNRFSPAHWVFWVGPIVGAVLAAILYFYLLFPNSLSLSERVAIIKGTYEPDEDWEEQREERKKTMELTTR
UniProt P19474: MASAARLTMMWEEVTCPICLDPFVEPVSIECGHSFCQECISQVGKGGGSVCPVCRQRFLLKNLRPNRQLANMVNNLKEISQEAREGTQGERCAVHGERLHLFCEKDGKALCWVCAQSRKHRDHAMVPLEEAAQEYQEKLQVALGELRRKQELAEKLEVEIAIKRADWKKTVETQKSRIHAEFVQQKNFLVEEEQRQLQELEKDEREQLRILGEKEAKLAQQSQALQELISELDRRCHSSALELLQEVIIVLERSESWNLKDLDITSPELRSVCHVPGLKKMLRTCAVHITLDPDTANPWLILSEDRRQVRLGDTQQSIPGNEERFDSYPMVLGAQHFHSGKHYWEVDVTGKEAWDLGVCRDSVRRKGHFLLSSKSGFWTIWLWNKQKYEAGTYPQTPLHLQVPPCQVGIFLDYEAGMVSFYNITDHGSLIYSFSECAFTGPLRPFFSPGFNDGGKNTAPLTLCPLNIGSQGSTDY

Tests used:
ULK1 = target: T1, ULK1 (UniProt O75385); assay: co-IP; immunoprecipitation analyses of AQP5, TRIM21 and ULK1 (Figure S11a-c); cells, baits and antibodies not shown
T1 sequence: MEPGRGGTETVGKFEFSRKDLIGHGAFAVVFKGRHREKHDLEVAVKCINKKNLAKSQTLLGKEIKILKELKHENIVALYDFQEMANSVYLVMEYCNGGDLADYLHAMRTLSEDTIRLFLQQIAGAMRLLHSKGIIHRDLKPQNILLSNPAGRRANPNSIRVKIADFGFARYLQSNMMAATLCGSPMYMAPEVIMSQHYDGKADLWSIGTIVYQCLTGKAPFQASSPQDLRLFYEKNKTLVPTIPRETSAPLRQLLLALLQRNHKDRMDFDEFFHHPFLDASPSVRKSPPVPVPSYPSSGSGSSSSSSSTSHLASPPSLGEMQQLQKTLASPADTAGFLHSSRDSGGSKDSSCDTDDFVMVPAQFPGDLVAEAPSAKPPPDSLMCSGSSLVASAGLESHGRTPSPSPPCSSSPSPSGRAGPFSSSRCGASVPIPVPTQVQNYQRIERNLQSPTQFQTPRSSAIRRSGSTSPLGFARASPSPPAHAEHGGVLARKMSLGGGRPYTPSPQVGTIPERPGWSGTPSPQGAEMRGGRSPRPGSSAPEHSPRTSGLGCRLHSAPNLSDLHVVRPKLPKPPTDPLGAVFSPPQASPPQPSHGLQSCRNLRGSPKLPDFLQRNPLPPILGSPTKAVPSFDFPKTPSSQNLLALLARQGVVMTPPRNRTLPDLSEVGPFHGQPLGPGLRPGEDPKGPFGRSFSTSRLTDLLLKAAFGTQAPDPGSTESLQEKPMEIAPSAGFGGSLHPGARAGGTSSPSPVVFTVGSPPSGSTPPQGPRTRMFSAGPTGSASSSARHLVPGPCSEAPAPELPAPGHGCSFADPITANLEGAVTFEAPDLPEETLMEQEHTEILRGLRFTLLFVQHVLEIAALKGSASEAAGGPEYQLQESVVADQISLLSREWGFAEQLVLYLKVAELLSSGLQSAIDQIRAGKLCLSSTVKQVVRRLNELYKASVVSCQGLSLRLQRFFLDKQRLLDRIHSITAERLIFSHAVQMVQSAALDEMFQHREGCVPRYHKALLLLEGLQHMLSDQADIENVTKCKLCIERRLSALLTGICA

AQP5 = AQP5 (UniProt P55064); assay: as above
ULK1-HA = target: T2, ULK1-HA (UniProt O75385); assay: co-IP; AQP5-overexpressing or AQP5-knockdown AGS cells co-transfected with ULK1-HA and TRIM21-Myc; lysates precipitated with anti-HA agarose and immunoblotted; also 293T cells with AQP5 overexpressed to different degrees (Figure S11f)
T2 sequence: T1 sequence

Row | Substance | binding (ULK1) | binding (AQP5) | binding (ULK1-HA)
1 | TRIM21 (from UniProt P19474 1-475) | binds | binds | –
2 | TRIM21-Myc (from UniProt P19474 1-475) | – | – | binds
